According to PMC10499034:

Target: T1, GST-tagged Rab19 (UniProt A4D1S5)
T1 sequence: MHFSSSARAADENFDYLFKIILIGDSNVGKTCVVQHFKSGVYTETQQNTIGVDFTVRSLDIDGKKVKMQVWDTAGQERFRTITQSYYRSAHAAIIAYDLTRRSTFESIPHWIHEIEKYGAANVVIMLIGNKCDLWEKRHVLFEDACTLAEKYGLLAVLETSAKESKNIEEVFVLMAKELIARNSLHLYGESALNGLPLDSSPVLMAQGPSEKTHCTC
Assay: pull-down; purified GST–Rab19 added to WT or Vps41 KO MDCK cell lysates, loaded with GMP-PCP or GDP, captured on glutathione beads; lysis 20 mM HEPES pH 7.4, 150 mM NaCl, 1% Triton-X; washes with 300 mM NaCl, 0.1% Triton-X; immunoblot for endogenous Vps11; only the target purified

binding: binds
Substance: Vps11 (endogenous, MDCK cells)

Results are given in words; binding and its absence hold for the method and conditions named. In cells and extracts the contact can be indirect. Binding can be weak; no strength is given. Tags and fused reporters may be left off the sequences shown.
